Assay [1] deals with T1, mouse CX3CR1 coupled to the enzyme donor component of β-gal, in CHO-K1 reporter cells (mouse) (UniProt Q9Z0D9).
T1 sequence: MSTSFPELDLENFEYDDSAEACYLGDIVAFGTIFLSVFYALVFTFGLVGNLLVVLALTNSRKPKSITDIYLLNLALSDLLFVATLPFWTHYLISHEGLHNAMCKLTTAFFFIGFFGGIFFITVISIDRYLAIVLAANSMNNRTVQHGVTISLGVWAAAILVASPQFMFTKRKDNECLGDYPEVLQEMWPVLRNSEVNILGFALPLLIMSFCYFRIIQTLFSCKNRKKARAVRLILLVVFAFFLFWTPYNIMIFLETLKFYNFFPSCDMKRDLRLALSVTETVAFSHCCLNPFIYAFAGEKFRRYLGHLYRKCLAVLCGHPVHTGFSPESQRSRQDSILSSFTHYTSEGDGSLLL
Briefly: condition: only with the CX3CR1 monoclonal antibody in the absence of CX3CL1; split reporter; β-gal enzyme fragment complementation (PathHunter) in mouse CX3CR1 CHO-K1 reporter cells; cells incubated with anti-CX3CR1 mAb clone 1C11 for 90 minutes at 37°C in the absence of CX3CL1; luminescence.

Assay [2] addresses T1, mouse CX3CR1 coupled to the enzyme donor component of β-gal, in CHO-K1 reporter cells (mouse). Briefly: split reporter; β-gal enzyme fragment complementation (PathHunter) in mouse CX3CR1 CHO-K1 reporter cells; cells incubated with agonist CX3CL1 for 90 minutes at 37°C; luminescence.

No constants are given. Whether binding was seen depends on the method and setting. Binding seen in cells or lysates may run through a third protein. For some assays here: Binding can be weak; no strength is given.

As for “β-arrestin coupled to the enzyme acceptor component of β-gal”, the binding entry in assay [1] is given as “no binding”; in assay [2] it was “binds”.

The record behind these values is article PMC10524267.
